# No constants are given. Whether binding was seen depends on the method and setting. Some entries that bind do so weakly or less than the wild type. For some assays here: Where a sequence is shown, tags or fusion partners need not be part of it.
# T1: rPODXL-v2-Fc fusion protein (human) (UniProt O00592)
# T1 sequence (highly glycosylated, looked up): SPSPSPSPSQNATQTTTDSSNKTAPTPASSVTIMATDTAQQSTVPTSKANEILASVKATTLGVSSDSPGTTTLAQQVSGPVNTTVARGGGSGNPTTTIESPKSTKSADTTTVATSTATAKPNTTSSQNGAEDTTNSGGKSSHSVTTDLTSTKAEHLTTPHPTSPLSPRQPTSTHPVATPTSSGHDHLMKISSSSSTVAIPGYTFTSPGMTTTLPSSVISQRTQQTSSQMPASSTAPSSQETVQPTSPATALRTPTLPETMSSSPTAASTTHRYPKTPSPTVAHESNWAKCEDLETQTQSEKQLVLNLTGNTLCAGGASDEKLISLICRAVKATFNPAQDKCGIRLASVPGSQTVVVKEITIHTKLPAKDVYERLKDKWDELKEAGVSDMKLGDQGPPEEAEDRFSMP
# T2: podocalyxin-like protein isoform 2 precursor (PODXL-v2) of gastric cancer cells (human) (UniProt O00592)
# T2 sequence (looked up): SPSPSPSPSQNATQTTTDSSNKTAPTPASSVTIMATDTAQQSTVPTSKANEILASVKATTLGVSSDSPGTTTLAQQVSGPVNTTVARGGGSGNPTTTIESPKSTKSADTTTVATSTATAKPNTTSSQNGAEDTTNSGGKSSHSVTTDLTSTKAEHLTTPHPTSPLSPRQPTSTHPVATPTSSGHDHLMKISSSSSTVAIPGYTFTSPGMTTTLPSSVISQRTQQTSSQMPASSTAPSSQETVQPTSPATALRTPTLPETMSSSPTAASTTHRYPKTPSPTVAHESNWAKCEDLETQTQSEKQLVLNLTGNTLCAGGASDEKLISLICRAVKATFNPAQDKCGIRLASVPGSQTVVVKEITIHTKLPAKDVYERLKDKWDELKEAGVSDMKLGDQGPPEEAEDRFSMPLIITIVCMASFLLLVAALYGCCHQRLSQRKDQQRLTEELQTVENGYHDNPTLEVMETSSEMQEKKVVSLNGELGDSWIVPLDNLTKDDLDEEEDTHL
# What was measured:
# [1] = target: T1, rPODXL-v2-Fc fusion protein (human); experiment: direct ELISA, detection with HRP-conjugated anti-6xHis mAb
# [2] = target: T1, rPODXL-v2-Fc fusion protein (human); experiment: BLI (Octet QKe), mAb captured on anti-mouse IgG Fc (AMC) biosensors
# [3] = target: T2, podocalyxin-like protein isoform 2 precursor (PODXL-v2) of gastric cancer cells (human); experiment: Western blot of MKN45 lysates after siRNA knock-down
# [4] = target: T2, podocalyxin-like protein isoform 2 precursor (PODXL-v2) of gastric cancer cells (human); experiment: immunoprecipitation from cell membrane fractions, Western blot
# [5] = target: T2, podocalyxin-like protein isoform 2 precursor (PODXL-v2) of gastric cancer cells (human); experiment: Western blot after siRNA knock-down
# [6] = target: T2, podocalyxin-like protein isoform 2 precursor (PODXL-v2) of gastric cancer cells (human); experiment: cell staining analysis of gastric cancer cells
# [7] = target: T2, podocalyxin-like protein isoform 2 precursor (PODXL-v2) of gastric cancer cells (human); experiment: immunocytochemistry on cytospin slides
# [8] = target: T1, rPODXL-v2-Fc fusion protein (human); experiment: direct and indirect ELISA
# [9] = target: T2, podocalyxin-like protein isoform 2 precursor (PODXL-v2) of gastric cancer cells (human); experiment: immunocytochemistry on BGC823, MKN45 and GES-1 cells
# [10] = target: T1, rPODXL-v2-Fc fusion protein (human); experiment: ELISA (data not shown)
binder,measurement,setting,value
MAI1738-HL-His (scFv) scFv: EVKLVESGGGLVKPGGSLKVSCAASGFTFSTYTMSWVRQTPEKRLEWVATISGGVIYTYYPDSVKGRFTISRDDAKNTLYLQMSSLRSEDTALYYCARHYSNYEGQGMDSWGQGTSVTVSSAKTTPPSDGGGGSGGGGSGGGGSDIVLTQSPVTLSVTPGDSVSLSCRASQSINNNLHWYQQKSHESPRLLIKYASQSISGIPPRFSGSRSGTDFTLSINTVETEDFGVYFCQQSNSWPLTFGAGTKLELKRADAAPTVSHHHHHH,binding,[1],binds
"MAI1738 mAb (antibody, V domains shown, Mouse monoclonal antibody from a hybridoma (A/J mice); it is detected with anti-mouse IgG-Fc; also called anti-PODXL-v2 monoclonal antibody; second subclone of MS17-38) VH: EVKLVESGGGLVKPGGSLKVSCAASGFTFSTYTMSWVRQTPEKRLEWVATISGGVIYTYYPDSVKGRFTISRDDAKNTLYLQMSSLRSEDTALYYCARHYSNYEGQGMDSWGQGTSVTVSS VL: DIVLTQSPVTLSVTPGDSVSLSCRASQSINNNLHWYQQKSHESPRLLIKYASQSISGIPPRFSGSRSGTDFTLSINTVETEDFGVYFCQQSNSWPLTFGAGTKLELKR",binding,[2],binds
same,binding,[3],binds
same,binding,[4],binds
same,binding,[5],binds
same,binding,[6],binds
same,binding,[7],binds
same,binding,[8],binds
same,binding,[9],binds
"MAI1738 chimeric antibody (chiAb) (antibody, V domains shown, not shown: a dimerising Fc or GST) VH: EVKLVESGGGLVKPGGSLKVSCAASGFTFSTYTMSWVRQTPEKRLEWVATISGGVIYTYYPDSVKGRFTISRDDAKNTLYLQMSSLRSEDTALYYCARHYSNYEGQGMDSWGQGTSVTVSS VL: DIVLTQSPVTLSVTPGDSVSLSCRASQSINNNLHWYQQKSHESPRLLIKYASQSISGIPPRFSGSRSGTDFTLSINTVETEDFGVYFCQQSNSWPLTFGAGTKLELKR",binding,[10],binds
MAI1738-LH-His (scFv) scFv: DIVLTQSPVTLSVTPGDSVSLSCRASQSINNNLHWYQQKSHESPRLLIKYASQSISGIPPRFSGSRSGTDFTLSINTVETEDFGVYFCQQSNSWPLTFGAGTKLELKRADAAPTVSGGGGSGGGGSGGGGSEVKLVESGGGLVKPGGSLKVSCAASGFTFSTYTMSWVRQTPEKRLEWVATISGGVIYTYYPDSVKGRFTISRDDAKNTLYLQMSSLRSEDTALYYCARHYSNYEGQGMDSWGQGTSVTVSSAKTTPPSDHHHHHH,binding,[1],binds

# From patent US20210139602A1 (MEDABOME, published 2021)
